Source: publication PMC3066133
No constants are given. Whether binding was seen depends on the method and setting. In cells and extracts the contact can be indirect. A yes stands for co-enrichment or nearness to the bait. Other partners may have been found.

The binders below were run against HA-RI332, C-terminally truncated form of ribophorin-I with an HA epitope (assay: affinity purification with mass spectrometry).

Binder | binding
UGGT2 (protein, UniProt Q9NYU1 28-1516) TVAASKSVTAHLAAKWPETPLLLEASEFMAEESNEKFWQFLETVQELAIYKQTESDYSYYNLILKKAGQFLDNLHINLLKFAFSIRAYSPAIQMFQQIAADEPPPDGCNAFVVIHKKHTCKINEIKKLLKKAASRTRPYLFKGDHKFPTNKENLPVVILYAEMGTRTFSAFHKVLSEKAQNEEILYVLRHYIQKPSSRKMYLSGYGVELAIKSTEYKALDDTQVKTVTNTTVEDETETNEVQGFLFGKLKEIYSDLRDNLTAFQKYLIESNKQMMPLKVWELQDLSFQAASQIMSAPVYDSIKLMKDISQNFPIKARSLTRIAVNQHMREEIKENQKDLQVRFKIQPGDARLFINGLRVDMDVYDAFSILDMLKLEGKMMNGLRNLGINGEDMSKFLKLNSHIWEYTYVLDIRHSSIMWINDLENDDLYITWPTSCQKLLKPVFPGSVPSIRRNFHNLVLFIDPAQEYTLDFIKLADVFYSHEVPLRIGFVFILNTDDEVDGANDAGVALWRAFNYIAEEFDISEAFISIVHMYQKVKKDQNILTVDNVKSVLQNTFPHANIWDILGIHSKYDEERKAGASFYKMTGLGPLPQALYNGEPFKHEEMNIKELKMAVLQRMMDASVYLQREVFLGTLNDRTNAIDFLMDRNNVVPRINTLILRTNQQYLNLISTSVTADVEDFSTFFFLDSQDKSAVIAKNMYYLTQDDESIISAVTLWIIADFDKPSGRKLLFNALKHMKTSVHSRLGIIYNPTSKINEENTAISRGILAAFLTQKNMFLRSFLGQLAKEEIATAIYSGDKIKTFLIEGMDKNAFEKKYNTVGVNIFRTHQLFCQDVLKLRPGEMGIVSNGRFLGPLDEDFYAEDFYLLEKITFSNLGEKIKGIVENMGINANNMSDFIMKVDALMSSVPKRASRYDVTFLRENHSVIKTNPQENDMFFNVIAIVDPLTREAQKMAQLLVVLGKIINMKIKLFMNCRGRLSEAPLESFYRFVLEPELMSGANDVSSLGPVAKFLDIPESPLLILNMITPEGWLVETVHSNCDLDNIHLKDTEKTVTAEYELEYLLLEGQCFDKVTEQPPRGLQFTLGTKNKPAVVDTIVMAHHGYFQLKANPGAWILRLHQGKSEDIYQIVGHEGTDSQADLEDIIVVLNSFKSKILKVKVKKETDKIKEDILTDEDEKTKGLWDSIKSFTVSLHKENKKEKDVLNIFSVASGHLYERFLRIMMLSVLRNTKTPVKFWLLKNYLSPTFKEVIPHMAKEYGFRYELVQYRWPRWLRQQTERQRIIWGYKILFLDVLFPLAVDKIIFVDADQIVRHDLKELRDFDLDGAPYGYTPFCDSRREMDGYRFWKTGYWASHLLRRKYHISALYVVDLKKFRRIGAGDRLRSQYQALSQDPNSLSNLDQDLPNNMIYQVAIKSLPQDWLWCETWCDDESKQRAKTIDLCNNPKTKESKLKAAARIVPEWVEYDAEIRQLLDHLENKKQDTILTHDEL | binds
DNAJC3/P58IPK (protein, UniProt Q13217 32-504) GVNADVEKHLELGKKLLAAGQLADALSQFHAAVDGDPDNYIAYYRRATVFLAMGKSKAALPDLTKVIQLKMDFTAARLQRGHLLLKQGKLDEAEDDFKKVLKSNPSENEEKEAQSQLIKSDEMQRLRSQALNAFGSGDYTAAIAFLDKILEVCVWDAELRELRAECFIKEGEPRKAISDLKAASKLKNDNTEAFYKISTLYYQLGDHELSLSEVRECLKLDQDHKRCFAHYKQVKKLNKLIESAEELIRDGRYTDATSKYESVMKTEPSIAEYTVRSKERICHCFSKDEKPVEAIRVCSEVLQMEPDNVNALKDRAEAYLIEEMYDEAIQDYETAQEHNENDQQIREGLEKAQRLLKQSQKRDYYKILGVKRNAKKQEIIKAYRKLALQWHPDNFQNEEEKKKAEKKFIDIAAAKEVLSDPEMRKKFDDGEDPLDAESQQGGGGNPFHRSWNSWQGFNPFSSGGPFRFKFHFN | binds
PLOD1 (protein, UniProt Q02809 19-727) KGDAKPEDNLLVLTVATKETEGFRRFKRSAQFFNYKIQALGLGEDWNVEKGTSAGGGQKVRLLKKALEKHADKEDLVILFADSYDVLFASGPRELLKKFRQARSQVVFSAEELIYPDRRLETKYPVVSDGKRFLGSGGFIGYAPNLSKLVAEWEGQDSDSDQLFYTKIFLDPEKREQINITLDHRCRIFQNLDGALDEVVLKFEMGHVRARNLAYDTLPVLIHGNGPTKLQLNYLGNYIPRFWTFETGCTVCDEGLRSLKGIGDEALPTVLVGVFIEQPTPFVSLFFQRLLRLHYPQKHMRLFIHNHEQHHKAQVEEFLAQHGSEYQSVKLVGPEVRMANADARNMGADLCRQDRSCTYYFSVDADVALTEPNSLRLLIQQNKNVIAPLMTRHGRLWSNFWGALSADGYYARSEDYVDIVQGRRVGVWNVPYISNIYLIKGSALRGELQSSDLFHHSKLDPDMAFCANIRQQDVFMFLTNRHTLGHLLSLDSYRTTHLHNDLWEVFSNPEDWKEKYIHQNYTKALAGKLVETPCPDVYWFPIFTEVACDELVEEMEHFGQWSLGNNKDNRIQGGYENVPTIDIHMNQIGFEREWHKFLLEYIAPMTEKLYPGYYTRAQFDLAFVVRYKPDEQPSLMPHHDASTFTINIALNRVGVDYEGGGCRFLRYNCSIRAPRKGWTLMHPGRLTHYHEGLPTTRGTRYIAVSFVDP | binds
CHPF2 (protein, UniProt Q9P2E5 1-772) MRLSSLLALLRPALPLILGLSLGCSLSLLRVSWIQGEGEDPCVEAVGERGGPQNPDSRARLDQSDEDFKPRIVPYYRDPNKPYKKVLRTRYIQTELGSRERLLVAVLTSRATLSTLAVAVNRTVAHHFPRLLYFTGQRGARAPAGMQVVSHGDERPAWLMSETLRHLHTHFGADYDWFFIMQDDTYVQAPRLAALAGHLSINQDLYLGRAEEFIGAGEQARYCHGGFGYLLSRSLLLRLRPHLDGCRGDILSARPDEWLGRCLIDSLGVGCVSQHQGQQYRSFELAKNRDPEKEGSSAFLSAFAVHPVSEGTLMYRLHKRFSALELERAYSEIEQLQAQIRNLTVLTPEGEAGLSWPVGLPAPFTPHSRFEVLGWDYFTEQHTFSCADGAPKCPLQGASRADVGDALETALEQLNRRYQPRLRFQKQRLLNGYRRFDPARGMEYTLDLLLECVTQRGHRRALARRVSLLRPLSRVEILPMPYVTEATRVQLVLPLLVAEAAAAPAFLEAFAANVLEPREHALLTLLLVYGPREGGRGAPDPFLGVKAAAAELERRYPGTRLAWLAVRAEAPSQVRLMDVVSKKHPVDTLFFLTTVWTRPGPEVLNRCRMNAISGWQAFFPVHFQEFNPALSPQRSPPGPPGAGPDPPSPPGADPSRGAPIGGRFDRQASAEGCFYNADYLAARARLAGELAGQEEEEALEGLEVMDVFLRFSGLHLFRAVEPGLVQKFSLRDCSPRLSEELYHRCRLSNLEGLGGRAQLAMALFEQEQANST | binds
EXT2 (protein, UniProt Q93063 1-718) MCASVKYNIRGPALIPRMKTKHRIYYITLFSIVLLGLIATGMFQFWPHSIESSNDWNVEKRSIRDVPVVRLPADSPIPERGDLSCRMHTCFDVYRCGFNPKNKIKVYIYALKKYVDDFGVSVSNTISREYNELLMAISDSDYYTDDINRACLFVPSIDVLNQNTLRIKETAQAMAQLSRWDRGTNHLLFNMLPGGPPDYNTALDVPRDRALLAGGGFSTWTYRQGYDVSIPVYSPLSAEVDLPEKGPGPRQYFLLSSQVGLHPEYREDLEALQVKHGESVLVLDKCTNLSEGVLSVRKRCHKHQVFDYPQVLQEATFCVVLRGARLGQAVLSDVLQAGCVPVVIADSYILPFSEVLDWKRASVVVPEEKMSDVYSILQSIPQRQIEEMQRQARWFWEAYFQSIKAIALATLQIINDRIYPYAAISYEEWNDPPAVKWGSVSNPLFLPLIPPQSQGFTAIVLTYDRVESLFRVITEVSKVPSLSKLLVVWNNQNKNPPEDSLWPKIRVPLKVVRTAENKLSNRFFPYDEIETEAVLAIDDDIIMLTSDELQFGYEVWREFPDRLVGYPGRLHLWDHEMNKWKYESEWTNEVSMVLTGAAFYHKYFNYLYTYKMPGDIKNWVDAHMNCEDIAMNFLVANVTGKAVIKVTPRKKFKCPECTAIDGLSLDQTHMVERSECINKFASVFGTMPLKVVEHRADPVLYKDDFPEKLKSFPNIGSL | binds
ERdj5 (protein, UniProt Q8IXB1 33-793) DQDFYSLLGVSKTASSREIRQAFKKLALKLHPDKNPNNPNAHGDFLKINRAYEVLKDEDLRKKYDKYGEKGLEDNQGGQYESWNYYRYDFGIYDDDPEIITLERREFDAAVNSGELWFVNFYSPGCSHCHDLAPTWRDFAKEVDGLLRIGAVNCGDDRMLCRMKGVNSYPSLFIFRSGMAPVKYHGDRSKESLVSFAMQHVRSTVTELWTGNFVNSIQTAFAAGIGWLITFCSKGGDCLTSQTRLRLSGMLDGLVNVGWMDCATQDNLCKSLDITTSTTAYFPPGATLNNKEKNSILFLNSLDAKEIYLEVIHNLPDFELLSANTLEDRLAHHRWLLFFHFGKNENSNDPELKKLKTLLKNDHIQVGRFDCSSAPDICSNLYVFQPSLAVFKGQGTKEYEIHHGKKILYDILAFAKESVNSHVTTLGPQNFPANDKEPWLVDFFAPWCPPCRALLPELRRASNLLYGQLKFGTLDCTVHEGLCNMYNIQAYPTTVVFNQSNIHEYEGHHSAEQILEFIEDLMNPSVVSLTPTTFNELVTQRKHNEVWMVDFYSPWCHPCQVLMPEWKRMARTLTGLINVGSIDCQQYHSFCAQENVQRYPEIRFFPPKSNKAYHYHSYNGWNRDAYSLRIWGLGFLPQVSTDLTPQTFSEKVLQGKNHWVIDFYAPWCGPCQNFAPEFELLARMIKGKVKAGKVDCQAYAQTCQKAGIRAYPTVKFYFYERAKRNFQEEQINTRDAKAIAALISEKLETLRNQGKRNKDEL | binds
ERp72 (protein, UniProt P13667 21-645) VAGAEGPDEDSSNRENAIEDEEEEEEEDDDEEEDDLEVKEENGVLVLNDANFDNFVADKDTVLLEFYAPWCGHCKQFAPEYEKIANILKDKDPPIPVAKIDATSASVLASRFDVSGYPTIKILKKGQAVDYEGSRTQEEIVAKVREVSQPDWTPPPEVTLVLTKENFDEVVNDADIILVEFYAPWCGHCKKLAPEYEKAAKELSKRSPPIPLAKVDATAETDLAKRFDVSGYPTLKIFRKGRPYDYNGPREKYGIVDYMIEQSGPPSKEILTLKQVQEFLKDGDDVIIIGVFKGESDPAYQQYQDAANNLREDYKFHHTFSTEIAKFLKVSQGQLVVMQPEKFQSKYEPRSHMMDVQGSTQDSAIKDFVLKYALPLVGHRKVSNDAKRYTRRPLVVVYYSVDFSFDYRAATQFWRSKVLEVAKDFPEYTFAIADEEDYAGEVKDLGLSESGEDVNAAILDESGKKFAMEPEEFDSDTLREFVTAFKKGKLKPVIKSQPVPKNNKGPVKVVVGKTFDSIVMDPKKDVLIEFYAPWCGHCKQLEPVYNSLAKKYKGQKGLVIAKMDATANDVPSDRYKVEGFPTIYFAPSGDKKNPVKFEGGDRDLEHLSKFIEEHATKLSRTKEEL | binds
ERp5 (protein, UniProt Q15084 20-440) LYSSSDDVIELTPSNFNREVIQSDSLWLVEFYAPWCGHCQRLTPEWKKAATALKDVVKVGAVDADKHHSLGGQYGVQGFPTIKIFGSNKNRPEDYQGGRTGEAIVDAALSALRQLVKDRLGGRSGGYSSGKQGRSDSSSKKDVIELTDDSFDKNVLDSEDVWMVEFYAPWCGHCKNLEPEWAAAASEVKEQTKGKVKLAAVDATVNQVLASRYGIRGFPTIKIFQKGESPVDYDGGRTRSDIVSRALDLFSDNAPPPELLEIINEDIAKRTCEEHQLCVVAVLPHILDTGAAGRNSYLEVLLKLADKYKKKMWGWLWTEAGAQSELETALGIGGFGYPAMAAINARKMKFALLKGSFSEQGINEFLRELSFGRGSTAPVGGGAFPTIVEREPWDGRDGELPVEDDIDLSDVELDDLGKDEL | binds
